Results published in article PMC10792809.
These are yes or no findings as the source states them, for the method shown. Binding seen in cells or lysates may run through a third protein. A result given as binding can be weak or reduced; the word gives no strength.

Target: endogenous PLAU (plasminogen activator urokinase) (human (endogenous in A549 and H1299))
Assay: co-IP; endogenous PLAU precipitated with anti-PLAU or IgG from lysates of ARID1A-depleted A549 and H1299 cells; protein A/G agarose beads, 4 °C, 2 h; Western blot

binding: binds
B1: endogenous TM4SF1 (protein, UniProt P30408 1-202)
chain: MCYGKCARCIGHSLVGLALLCIAANILLYFPNGETKYASENHLSRFVWFFSGIVGGGLLMLLPAFVFIGLEQDDCCGCCGHENCGKRCAMLSSVLAALIGIAGSGYCVIVAALGLAEGPLCLDSLGQWNYTFASTEGQYLLDTSTWSECTEPKHIVEWNVSLFSILLALGGIEFILCLIQVINGVLGGICGFCCSHQQQYDC
